One molecule from PMC6503876 can be followed below.

These are yes or no findings as the source states them, for the method shown. Binding seen in cells or lysates may run through a third protein. A result given as binding can be weak or reduced; the word gives no strength.

This experiment addresses perilipin-5 (Pelodiscus sinensis (endogenous in liver)). Kind of experiment: co-IP; liver homogenates of hibernating and non-hibernating turtles lysed in Co-IP lysis buffer on ice; immunoprecipitating antibodies and protein A/G beads, 4 °C overnight; beads washed with lysis buffer 3-4 times; SDS-PAGE and western blotting. For orientation: In western blotting, separated proteins are transferred to a membrane and probed.

B1: adipose triglyceride lipase (enzyme, UniProt K7FV84 1-484)
chain: AMFPLDAPWSISFAGCGFLGVYHIENCCCLQEHAPFLVANAKTIYGASAGALTATALVTGACLGEAGANIIQVSKEARKRFLGPLHPSFNLVKIIRTCLYKTLPDNGHEVARGRLGISLTRVSDGENVILSEFNSKEELIQACVCSTFIPVYCGLIPPSLQGVRYVDGGISDNLPQYELKNTITVSPFSGESDICPRDSSTNIHELRVTNTSIQFNLRNLYRLSKALFPPEPQVLRDMCKQGYRDALHFLKKNGLLHRPEPSRPLLAIENSSGARDPEEEEKSAEDQLRENAALAAVEDHIFEHLPPRLNQALLEACTERRGLLVGITNLLPVRLASAMMIPYTLPVESAVSFTVRLLEWLPDVPEDIRWMKEQTSKVCNYLMREAKKKLGSHLSARLYYHFELRRTQSLPIPLASTYGEALPQWVRSNLSLTDVKTKWEEYQRQLMLGLFCINVDMQASIFPSDGLQMRLSPADRVQESLPLF
With B1, the binding result is “binds”.
